The values that follow come from publication PMC4511362.

The target of test [1] is T1, Leucocyte elastase inhibitor (LEI), endogenous in HeLa cells (human (endogenous in HeLa)) (UniProt P30740).
T1 sequence: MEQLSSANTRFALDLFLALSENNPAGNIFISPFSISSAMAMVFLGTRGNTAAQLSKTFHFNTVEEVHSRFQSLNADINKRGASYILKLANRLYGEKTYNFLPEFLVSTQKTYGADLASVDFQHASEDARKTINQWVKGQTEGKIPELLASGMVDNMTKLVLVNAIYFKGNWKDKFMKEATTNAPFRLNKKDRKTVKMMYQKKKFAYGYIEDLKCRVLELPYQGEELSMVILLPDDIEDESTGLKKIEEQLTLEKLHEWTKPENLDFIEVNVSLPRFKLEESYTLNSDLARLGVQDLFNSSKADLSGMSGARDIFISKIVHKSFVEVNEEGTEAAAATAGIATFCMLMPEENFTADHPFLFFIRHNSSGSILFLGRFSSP
As to the kind of experiment: co-IP; ProFound Mammalian Co-Immunoprecipitation Kit; crude extracts of HeLa (100 ug) and BHK cells precipitated with anti-PKC zeta or anti-LEI; blots with anti-PKC zeta or anti-LEI; column without IgG as control.

Test [2] has as its target T2, Protein kinase C (PKC) zeta, endogenous in HeLa cells (human (endogenous in HeLa)) (UniProt Q05513).
T2 sequence: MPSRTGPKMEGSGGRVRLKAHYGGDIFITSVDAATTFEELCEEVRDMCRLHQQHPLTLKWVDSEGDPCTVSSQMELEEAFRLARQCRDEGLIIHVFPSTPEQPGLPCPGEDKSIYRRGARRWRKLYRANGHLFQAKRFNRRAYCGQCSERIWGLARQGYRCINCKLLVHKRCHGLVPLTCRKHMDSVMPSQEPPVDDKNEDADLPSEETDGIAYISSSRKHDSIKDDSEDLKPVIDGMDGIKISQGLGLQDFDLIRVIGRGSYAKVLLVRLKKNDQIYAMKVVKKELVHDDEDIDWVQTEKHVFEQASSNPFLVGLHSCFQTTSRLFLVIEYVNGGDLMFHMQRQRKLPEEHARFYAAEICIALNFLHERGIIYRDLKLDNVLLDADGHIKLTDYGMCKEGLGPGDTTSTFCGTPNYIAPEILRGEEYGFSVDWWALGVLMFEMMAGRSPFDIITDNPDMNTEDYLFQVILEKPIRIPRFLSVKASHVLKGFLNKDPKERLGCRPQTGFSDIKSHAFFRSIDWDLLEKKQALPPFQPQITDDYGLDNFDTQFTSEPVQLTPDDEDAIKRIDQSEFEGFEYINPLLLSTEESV
Described as above.

Results are given in words; binding and its absence hold for the method and conditions named. Binding seen in cells or lysates may run through a third protein. Some results given as binding are weak or reduced against the parent protein; the word gives no strength.

B1: Protein kinase C (PKC) zeta, endogenous in HeLa cells (enzyme, UniProt Q05513 1-592)
chain: T2 sequence
For B1, in test [1], the binding entry is “binds”.

B2: Leucocyte elastase inhibitor (LEI), endogenous in HeLa cells (protein, UniProt P30740 1-379)
chain: T1 sequence
Take B2: the binding entry in test [2] is given as “binds”.
